This assay deals with T1, Nogo-B (mouse (endogenous in primary Schwann cells)) (UniProt Q99P72).
T1 sequence: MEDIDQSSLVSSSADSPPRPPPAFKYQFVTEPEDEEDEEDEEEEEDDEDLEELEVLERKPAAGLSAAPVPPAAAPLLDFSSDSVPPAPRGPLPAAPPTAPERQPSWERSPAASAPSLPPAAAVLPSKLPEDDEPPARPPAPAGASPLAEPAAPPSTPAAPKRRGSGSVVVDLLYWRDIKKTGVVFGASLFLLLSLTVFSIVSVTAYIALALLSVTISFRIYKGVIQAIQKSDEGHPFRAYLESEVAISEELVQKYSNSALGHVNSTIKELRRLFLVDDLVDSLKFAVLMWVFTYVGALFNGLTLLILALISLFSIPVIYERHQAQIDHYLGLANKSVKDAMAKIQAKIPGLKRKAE
As to the kind of experiment: co-IP; lysate of a co-culture of wildtype Schwann cells and nogo-a/b deficient sensory neurons; incubated with Bianca antiserum or rabbit control IgG for 6 h at 4°C, then protein A/G agarose o/n at 4°C; washed with lysis buffer; Western blot with Bianca antiserum and NgBR antibody. (In general: In western blotting, separated proteins are transferred to a membrane and probed.)

Results are given in words; binding and its absence hold for the method and conditions named. In cells and extracts the contact can be indirect. Some binding calls cover weakened binding; strength is not graded here.

B1: Nogo-B receptor NgBR (receptor, mouse (endogenous in sensory neurons), UniProt Q99LJ8 1-297, looked up)
chain: MTGLYELVWRVLHALLCLHLTLTSWLRVRFGTWNWIWRRCCRAASAAVLAPLGFTLRKPRAVGRNRRHHRHPHGGPGPGPGPAATHPRLRWRADVRSLQKLPVHMGLLVTEEVQEPSFSDIASLVVWCMAVGISYISVYDHQGIFKRNNSRLMDEILKQQQELLGQDCSKYSAEFANSNDKDDQDLNCPSAVKVLSPEDGKADIVRAAQDFCQLVAQQQRKPTDLDVDLLGSLLSSHGFPDPDLVLKFGPVDSTLGFLPWQIRLTEIVSLPSHLNISYEDFFSALRQYAACEQRLGK
As to B1, the binding result is recorded as “binds”.

The values above are taken from PMC4655273, “Schwann Cell Expressed Nogo-B Modulates Axonal Branching of Adult Sensory Neurons Through the Nogo-B Receptor NgBR” (Frontiers in Cellular Neuroscience, 2015).
